# Measurements: patent US20180251563A1
# Sequences of proteins named here, by UniProt entry; tags and fusion partners are left off. A change or cut given only in a name is not applied to a line headed by its entry. A line that says so, or that is headed by a name, gives the form on record, which may keep a tag or linker.
# cynomolgus PD-L1 (cynomolgus (Macaca fascicularis)) (G7PSE7, form named): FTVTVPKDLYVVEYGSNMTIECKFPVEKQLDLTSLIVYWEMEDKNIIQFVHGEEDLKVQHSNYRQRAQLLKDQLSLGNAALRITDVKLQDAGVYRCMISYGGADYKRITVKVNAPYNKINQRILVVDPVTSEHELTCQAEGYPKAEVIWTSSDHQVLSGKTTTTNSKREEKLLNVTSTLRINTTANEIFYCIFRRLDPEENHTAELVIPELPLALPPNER
# Results are given in words; binding and its absence hold for the method and conditions named. Some entries that bind do so weakly or less than the wild type.
# T1: CD123 (target of Example 19) (Homo sapiens (Human)) (UniProt P26951)
# T1 sequence: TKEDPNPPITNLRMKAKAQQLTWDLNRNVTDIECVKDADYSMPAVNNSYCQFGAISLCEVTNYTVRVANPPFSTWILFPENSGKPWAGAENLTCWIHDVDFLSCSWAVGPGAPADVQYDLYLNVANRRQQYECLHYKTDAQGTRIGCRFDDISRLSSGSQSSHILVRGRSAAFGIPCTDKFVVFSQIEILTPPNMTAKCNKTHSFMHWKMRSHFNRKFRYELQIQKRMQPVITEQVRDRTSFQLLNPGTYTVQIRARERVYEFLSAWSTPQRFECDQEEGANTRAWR
# How the values were obtained:
# [1] = biological target: T1, CD123 (target of Example 19) (Homo sapiens (Human)); assay: library selection; assay not described
# [2] = biological target: cynomolgus PD-L1 (cynomolgus (Macaca fascicularis)) (UniProt G7PSE7); assay: flow cytometry, human T cells with the pb04 CAR incubated with soluble cynomolgus PDL1-Fc, detection with anti-Fc
# [3] = biological target: cynomolgus PD-L1 (cynomolgus (Macaca fascicularis)) (UniProt G7PSE7); assay: flow cytometry, CAR T cells
binding [1],binding [2],binding [3],Binder
binds,,,SEQ ID NO 114 (designed binder) MGSWTEFDRRLDAIWDRLFALGGSEAELAAFEKEIAAFESELQAYKGKGNPEVEWLREEAADIRDYLQAYRHN
,binds,binds,"CAR comprising the DBDpp pb04 (protein, not shown: small tags and cut ends) MGSWYEFTVRLEAIHERLKALGGSEAELAAFEKEIAAFESELQAYKGKGNPEVEILRDDAAFIRRFLQAYRHN"
